No constants are given. Whether binding was seen depends on the method and setting. Binding seen in cells or lysates may run through a third protein. These calls come from enrichment with a bait or labelling near it, and not all partners need be listed. For part of these data: A no says only that the protein was not detected with the bait. Where a sequence is shown, tags or fusion partners need not be part of it. One block for each binder: values may come before it.
What was measured:
[1] = target: T1, ALP1-GFP (ANTAGONIST OF LIKE HETEROCHROMATIN PROTEIN1 fused in frame to GFP) (Arabidopsis), Q94K49; assay: affinity purification with mass spectrometry; GFP-tagged bait immunoprecipitated from extracts of transgenic Arabidopsis plants (pALP1::ALP1-GFP, 35S::ALP1-GFP, 35S::GFP-CLF, 35S::GFP control); co-purifying proteins identified by mass spectrometry (IP-MS); three independent replicates; conditions: remark: other sources report otherwise
T1 chain: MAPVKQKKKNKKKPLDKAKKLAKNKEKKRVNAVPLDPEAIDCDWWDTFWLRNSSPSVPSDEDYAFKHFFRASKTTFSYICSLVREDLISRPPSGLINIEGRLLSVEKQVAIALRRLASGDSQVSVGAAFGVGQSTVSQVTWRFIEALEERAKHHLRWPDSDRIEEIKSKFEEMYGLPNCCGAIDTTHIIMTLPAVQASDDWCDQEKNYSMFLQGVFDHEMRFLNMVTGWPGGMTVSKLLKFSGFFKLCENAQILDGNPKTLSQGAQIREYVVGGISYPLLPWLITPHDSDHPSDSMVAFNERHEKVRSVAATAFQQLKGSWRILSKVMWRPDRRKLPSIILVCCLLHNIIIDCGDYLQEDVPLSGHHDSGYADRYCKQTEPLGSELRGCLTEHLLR

[2] = target: T2, GFP-CLF (CURLY LEAF fused to GFP) (Arabidopsis), P93831; assay: as above; conditions: remark: other sources report otherwise
T2 chain: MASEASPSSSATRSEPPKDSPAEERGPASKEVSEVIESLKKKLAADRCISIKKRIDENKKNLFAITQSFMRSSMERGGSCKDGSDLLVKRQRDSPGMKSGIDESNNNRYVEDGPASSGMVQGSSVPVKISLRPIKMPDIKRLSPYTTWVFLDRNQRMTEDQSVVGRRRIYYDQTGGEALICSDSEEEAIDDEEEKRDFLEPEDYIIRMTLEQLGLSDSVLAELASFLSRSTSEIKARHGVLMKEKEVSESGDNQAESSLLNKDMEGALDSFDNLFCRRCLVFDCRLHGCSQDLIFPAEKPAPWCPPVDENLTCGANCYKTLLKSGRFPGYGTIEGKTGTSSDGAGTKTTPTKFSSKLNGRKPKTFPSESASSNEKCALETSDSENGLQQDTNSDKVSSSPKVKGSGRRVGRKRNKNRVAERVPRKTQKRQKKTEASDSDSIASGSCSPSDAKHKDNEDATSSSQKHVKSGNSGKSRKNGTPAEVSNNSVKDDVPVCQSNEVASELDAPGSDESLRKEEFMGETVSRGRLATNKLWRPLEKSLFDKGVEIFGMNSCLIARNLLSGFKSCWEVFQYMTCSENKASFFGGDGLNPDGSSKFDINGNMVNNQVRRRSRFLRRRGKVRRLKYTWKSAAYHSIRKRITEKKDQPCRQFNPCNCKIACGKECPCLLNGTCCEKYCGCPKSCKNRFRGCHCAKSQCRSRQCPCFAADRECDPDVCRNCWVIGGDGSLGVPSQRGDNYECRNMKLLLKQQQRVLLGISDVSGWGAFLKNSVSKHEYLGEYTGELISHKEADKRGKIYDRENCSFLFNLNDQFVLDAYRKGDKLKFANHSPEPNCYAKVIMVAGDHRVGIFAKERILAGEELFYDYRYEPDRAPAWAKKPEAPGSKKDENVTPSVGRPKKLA

binding [1]: binds | binding [2]: no binding
B1: SWINGER (SWN), Q9ZSM8 1-856 (protein)
chain: MVTDDSNSSGRIKSHVDDDDDGEEEEDRLEGLENRLSELKRKIQGERVRSIKEKFEANRKKVDAHVSPFSSAASSRATAEDNGNSNMLSSRMRMPLCKLNGFSHGVGDRDYVPTKDVISASVKLPIAERIPPYTTWIFLDRNQRMAEDQSVVGRRQIYYEQHGGETLICSDSEEEPEPEEEKREFSEGEDSIIWLIGQEYGMGEEVQDALCQLLSVDASDILERYNELKLKDKQNTEEFSNSGFKLGISLEKGLGAALDSFDNLFCRRCLVFDCRLHGCSQPLISASEKQPYWSDYEGDRKPCSKHCYLQLKAVREVPETCSNFASKAEEKASEEECSKAVSSDVPHAAASGVSLQVEKTDIGIKNVDSSSGVEQEHGIRGKREVPILKDSNDLPNLSNKKQKTAASDTKMSFVNSVPSLDQALDSTKGDQGGTTDNKVNRDSEADAKEVGEPIPDNSVHDGGSSICQPHHGSGNGAIIIAEMSETSRPSTEWNPIEKDLYLKGVEIFGRNSCLIARNLLSGLKTCLDVSNYMRENEVSVFRRSSTPNLLLDDGRTDPGNDNDEVPPRTRLFRRKGKTRKLKYSTKSAGHPSVWKRIAGGKNQSCKQYTPCGCLSMCGKDCPCLTNETCCEKYCGCSKSCKNRFRGCHCAKSQCRSRQCPCFAAGRECDPDVCRNCWVSCGDGSLGEAPRRGEGQCGNMRLLLRQQQRILLGKSDVAGWGAFLKNSVSKNEYLGEYTGELISHHEADKRGKIYDRANSSFLFDLNDQYVLDAQRKGDKLKFANHSAKPNCYAKVMFVAGDHRVGIFANERIEASEELFYDYRYGPDQAPVWARKPEGSKKDDSAITHRRARKHQSH

binding [2]: binds
B2: ANTAGONIST OF LIKE HETEROCHROMATIN PROTEIN1 (ALP1), Q94K49 1-396 (protein)
chain: T1 chain
